Results deposited as PubChem BioAssay AID686943 (Drosophila RNAi Screening Center, 2013)

- Aim: 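Fly genes whose loss alters ERK activation after insulin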 (primary screen)
- System: Drosophila S2R+ haemocyte-like cells expressing YFP-tagged ERK (Rolled)
- Reagent: long dsRNA against Drosophila genes
- Conditions: insulin stimulation versus unstimulated cells; dose and duration not given
- Detection: 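Antibody staining for doubly phosphorylated ERK divided by ERK-YFP signal, as plate z-scores, in insulin-treated and untreated cells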
- Scale: replicate 1, z-score of dpERK with insulin and replicate 2, z-score of dpERK with insulin: higher = more active ERK per ERK-YFP after insulin; replicate 1, z-score of dpERK under basal conditions: higher = more basal active ERK per ERK-YFP
In all, the deposit lists about 23,000 reagents; below is an unselected part of those with a known target gene and a result. 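Extra replicates exist only for a retested subset of genes; insulin dose and duration not given; both raised and lowered dpERK matter.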 The numbers tell different reagents against one gene apart. Names joined by + are all predicted targets of the reagent. Further read-outs or replicates are left out here. Not stated in the record: the amount of reagent, the time to read-out.

predicted target	dsRNA no.	replicate 1, z-score of dpERK with insulin	replicate 2, z-score of dpERK with insulin	replicate 1, z-score of dpERK under basal conditions
CG32683 (GeneID 31970)	1	0.07	-0.27	1.27
CG32683 (GeneID 31970)	2	1.81	0.52	0.13
CG32683 (GeneID 31970)	3	-0.69	0.5	1.23
Or88a (GeneID 41715)	1	-0.06	0	0.43
CG34320 (retired record) (GeneID 5740595)	1	0.46	0.29	0.25
Fkbp14 (GeneID 37449)	1	0.29	1.57	4.74
CG3277 (GeneID 33543)	1	0.06	-0.7	-0.13
CG7379 (GeneID 42140)	1	0.75	0.13	-1.07
CG10555 (GeneID 31771)	1	-0.17	0.32	-0.88
Paics (GeneID 32228)	1	0.16	-0.39	-0.38
CG43707 (GeneID 33601)	1	0.22	0.11	-0.03
CG43707 (GeneID 33601)	2	-0.2	-1.26	0.42
CG43707 (GeneID 33601)	3	0.58	-0.29	-0.07
kon (GeneID 35104)	1	-0.63	-0.54	-0.62
CG14855 (GeneID 41789)	1	0.25	-0.17	-0.81
CG15399 (GeneID 33472)	1	-0.9	-0.34	-0.53
Oatp58Dc (GeneID 37545)	1	0.45	0.44	-0.57
Cyp4d1 (GeneID 31188)	1	-0.13	0.07	-2.14
Cyp4d1 (GeneID 31188)	2	-0.69	1.13	-0.07
CG42507 + Trl	1	-0.74	-0.66	-0.96
CG42507 + Trl	2	-3.99	-5.15	-3.97
CG2063 (GeneID 35952)	1	1.53	0.61	0.8
CdGAPr (GeneID 35267)	1	2	0.03	0.16

3 entries already listed, sorted by “replicate 2, z-score of dpERK with insulin”, high to low:
predicted target	dsRNA no.	replicate 1, z-score of dpERK with insulin	replicate 2, z-score of dpERK with insulin	replicate 1, z-score of dpERK under basal conditions
CG14855 (GeneID 41789)	1	0.25	-0.17	-0.81
CG43707 (GeneID 33601)	3	0.58	-0.29	-0.07
kon (GeneID 35104)	1	-0.63	-0.54	-0.62
